Test results reported in the supplement of paper PMC4683952.
The list shows a part of the results. Rule as the data show it: active = 2 or more and inactive = the rest. Repeats in this data set agree poorly, so a single value says little.

These compounds were tested on Lgr5 (MarsCy1-Lgr5-EGFP, U2OS) (assay: cell-surface Lgr5 expression (SCi1 fluorescence, background-subtracted) relative to WT DMSO (fold of DMSO control); higher = more Lgr5 at the plasma membrane). Conditions: U2OS MarsCy1-Lgr5-EGFP stable; treatment time: overnight; library: ActiProbe-5K (TimTec); 25 µM.

cell-surface Lgr5 expression, inactive:
Nc1ccc2c(c1)OC1(CCCCC1)O2 1.03
O=C1C2C3C=CC(C3)C2C(=O)N1Nc1ccc([N+](=O)[O-])cc1[N+](=O)[O-] (stereo unspecified) 1.26
C=CCNS(=O)(=O)c1ccc2[nH]c(=O)[nH]c2c1 1.02
COC(=O)c1c(N)sc2c1CCCC2 1.04
Nc1nc(N(c2ccccc2)c2ccccc2)nc(C(F)(F)F)n1 1.66
Nc1nonc1-c1noc(NCc2ccc3c(c2)OCO3)n1 1.07
O=C(NC1CCCCC1)c1scc2c1CCCC2 0.695
Nc1cc(N)nc(S)n1 1.11
CN(C)C(=O)CSc1nnc(C23CC4CC(CC(C4)C2)C3)o1 1.26
CC(C)(C)NC(=O)Nc1nncs1 1.22
O=c1ccc(=O)n(-c2ccc3nnc(C(F)(F)F)n3n2)[nH]1 0.919
CC(=O)N(C)C1CC(C)(C)NC(C)(C)C1 1.06
Cc1nc(SCc2noc(CSc3nc(C)c(C)c(C)c3C#N)n2)c(C#N)c(C)c1C 1.2
Cc1cc(S(=O)(=O)N2CCCCC2)c(C)s1 1.26
O=C1Oc2ccccc2C(=O)/C1=C\c1c[nH]c2ccccc12 0.338
Clc1ccc2c(c1)Nc1ccccc1S2 1.29
O=[N+]([O-])c1ccc(Nc2ccc3c(c2)OCCO3)nc1 0.964
COC(=O)Oc1c(Br)cc2oc(=O)sc2c1[N+](=O)[O-] 1.18
COc1cc2c(cc1OC)C1CCCCC1OC2c1cc(OC)c(OC)c(OC)c1 (stereo unspecified) 1.11
O=[N+]([O-])c1cc(Br)cc2c1[nH]c1ccc(Br)cc12 1.37
COC(=O)c1c(NC(=O)C2C3C=CC(C3)C2C(=O)O)sc2c1CCC2 (stereo unspecified) 1.01
CC(=O)C1C(=O)C=C(c2ccco2)CC1c1ccco1 (stereo unspecified) 1.2
CC(=O)c1nc2c(C)c(C)sc2[nH]1 1.16
Fc1ccc(CSc2ncnc3[nH]cnc23)c2ccccc12 1.18
C1(/C2CC3CC(C2)CC1C3)=N\O 1.24
CC1(C)CC2(CC(C)(C)N1CCO)OCCO2 1.07
N=C1SCC(=O)N1c1nccs1 0.99
CN(C)CCN1CCNCC1 0.782
Oc1c(Br)cc(Br)cc1/C=N\c1nccs1 1.24
CN(CC12CC3CC(CC(C3)C1)C2)S(=O)(=O)c1ccc(Br)s1 1.22
c1ccc2c3c([nH]c2c1)-c1nonc1CC3 1.37
C=CCC1(NCc2ccco2)CCCCC1 1.26
CNCc1cccs1.Cl 1.37
O=C1NN(c2ccc([N+](=O)[O-])cc2)C(=O)C2C3C=CC(C3)C12 (stereo unspecified) 1.19
Oc1ccc(Oc2ncc(Cl)cc2Cl)cc1 1.15
n1c(c(C)n[nH]c1=O)N\N=C1/CCC(CC1)C (stereo unspecified) 1.19
C(=C\c1nccc2c1[nH]c1ccccc12)/c1ccc2c(c1)OCO2 1.35
O=C(NCCCn1ccnc1)c1nc(Cn2cc(Cl)cn2)no1 1.4
O=C(O)CC1CCCCO1 (stereo unspecified) 0.971
O=c1c2c3c(sc2nc2n1CCCCC2)CCCC3 1.27
Cc1nnc(SCC(=O)NC(=O)CSc2nnc(C)s2)s1 1.08
O=C(O)[C@@H]1CSC2(CCCCC2)N1 1.09
O=C1N(CN2CCC3(CC2)OCCO3)c2ccccc2C12OCCO2 1.32
COCc1[nH]nc2c1C1(CCC(C(C)(C)C)CC1)C(C#N)=C(N)O2 (stereo unspecified) 0.973
I.Nc1nc2c(s1)CCCC2 1.02
CN(C)c1nc(N)nc(CN(C)S(=O)(=O)c2ccccc2)n1 0.999
CC1(C)CCC2(C)CCC(C)(C)NC2=N1 (stereo unspecified) 1.25
Clc1ncnc2c1ncn2C1CCCCO1 (stereo unspecified) 1.16
C/C(=N\O)c1ccc(/C(C)=N/O)cc1 1.2
Nc1ccc[n+](Cc2ccccn2)c1.[Br-] 1.59
NC(=O)C1(N2CCCCC2)CCN(C(=O)CN2CCNCC2)CC1 1.14
OC(c1ccccc1)C(O)(c1ccccc1)c1ccccc1 (stereo unspecified) 1.53
CCOC(=O)c1sc(N)c(C(=O)OCC)c1C 1.19
CCC(C)C(=O)N1CC(C)OC(C)C1 (stereo unspecified) 0.971
COc1cc(/C=N\O)c([N+](=O)[O-])cc1OC 1.3
C1CCC(=N/n2cnnc2)/CC1 1.23
Cc1cccn2c(=O)c(/C=C3/SC(=S)N(C)C3=O)c(N3CCCCC3)nc12 0.912
O=Cc1ccc(Sc2ccccc2)c([N+](=O)[O-])c1 1.48
O/N=C1/c2ccccc2-c2ncccc21 0.468
C1(/C(CC(CC1=O)(C)C)=O)=C/NC(CO)(CO)CO 1.14
Cn1c2c(c(=O)n(C)c1=O)C(O)(c1ccc(Br)cc1)N=C1SC=CN1C2 (stereo unspecified) 0.923
FC(F)(F)c1ccc2nnc(-c3c(Cl)cccc3Cl)n2c1 0.963
N#Cc1c(C(F)(F)F)cc(-c2ccco2)[nH]c1=S 1.02
Cc1ncc(C[n+]2csc(CCO)c2C)c(N)n1.Cl.[Cl-] 1.24
O=S(=O)(Nc1ccccn1)c1cc(Cl)ccc1Cl 1.01
Oc1ccc(-c2cnc3ccncc3n2)cc1 1.15
Cc1oc(CSCCSCc2cc(C(=O)O)c(C)o2)cc1C(=O)O 1.46
Clc1ccc(CNCC2CCCO2)cc1 (stereo unspecified) 1.36
C[N+]1(CC[N+]2(C)CCCCC2)CCCCC1 1.15
COCc1nnc(N)s1 0.998
CCN(CC)c1nc(OC)nc(C(N)=O)n1 1.02

An excerpt from the list above, for reference:
cell-surface Lgr5 expression, inactive:
C(=C\c1nccc2c1[nH]c1ccccc12)/c1ccc2c(c1)OCO2 1.35
O=C(NCCCn1ccnc1)c1nc(Cn2cc(Cl)cn2)no1 1.4
O=C(O)CC1CCCCO1 (stereo unspecified) 0.971
O=c1c2c3c(sc2nc2n1CCCCC2)CCCC3 1.27
